Data on four molecules can be found in article PMC11222469.

No constants are given. Whether binding was seen depends on the method and setting. In cells and extracts the contact can be indirect. Some binding calls cover weakened binding; strength is not graded here. For part of these data: Sequences can lack the tags named with a protein.

For assay [1], the target named is SMC1A (human (endogenous in HEK293T, MV4-11, HEL, HEK293)) (UniProt Q14683). Nature of the assay: co-IP; alpha-SMC1A antibody (1-10 ug per IP) overnight at 4 C, Protein-G beads, NP-40 buffer; lysates of Cas9+ HEL cells with ROSA26- or DCAF15-targeting sgRNAs; also with cycloheximide, MG132, MLN4924, indisulam or PCI-34051; Western blot. A general note: A western blot detects proteins with antibodies after separation by electrophoresis.

For assay [2] the target is unchanged. Nature of the assay: co-IP; alpha-SMC1A antibody; lysates of HEK293 FLAG-HA-dTAG-DCAF15[Clone#1] cells, asynchronous or synchronized in G1/S, G2 or prometaphase, DMSO or dTAG-13 (100 nM) for final 6 h; Western blot.
Another assay addresses FLAG-SMC1A-WT (human) (UniProt Q14683). Nature of the assay: co-IP; interaction of SMC1A or CDCA5 mutants with DCAF15 and RAD21 (Supplementary Fig. 3f, 3g, 4e); cells and legends not shown.

B1: PDS5B (protein, UniProt Q9NTI5 1-1447)
chain: MAHSKTRTNDGKITYPPGVKEISDKISKEEMVRRLKMVVKTFMDMDQDSEEEKELYLNLALHLASDFFLKHPDKDVRLLVACCLADIFRIYAPEAPYTSPDKLKDIFMFITRQLKGLEDTKSPQFNRYFYLLENIAWVKSYNICFELEDSNEIFTQLYRTLFSVINNGHNQKVHMHMVDLMSSIICEGDTVSQELLDTVLVNLVPAHKNLNKQAYDLAKALLKRTAQAIEPYITNFFNQVLMLGKTSISDLSEHVFDLILELYNIDSHLLLSVLPQLEFKLKSNDNEERLQVVKLLAKMFGAKDSELASQNKPLWQCYLGRFNDIHVPIRLECVKFASHCLMNHPDLAKDLTEYLKVRSHDPEEAIRHDVIVSIVTAAKKDILLVNDHLLNFVRERTLDKRWRVRKEAMMGLAQIYKKYALQSAAGKDAAKQIAWIKDKLLHIYYQNSIDDRLLVERIFAQYMVPHNLETTERMKCLYYLYATLDLNAVKALNEMWKCQNLLRHQVKDLLDLIKQPKTDASVKAIFSKVMVITRNLPDPGKAQDFMKKFTQVLEDDEKIRKQLEVLVSPTCSCKQAEGCVREITKKLGNPKQPTNPFLEMIKFLLERIAPVHIDTESISALIKQVNKSIDGTADDEDEGVPTDQAIRAGLELLKVLSFTHPISFHSAETFESLLACLKMDDEKVAEAALQIFKNTGSKIEEDFPHIRSALLPVLHHKSKKGPPRQAKYAIHCIHAIFSSKETQFAQIFEPLHKSLDPSNLEHLITPLVTIGHIALLAPDQFAAPLKSLVATFIVKDLLMNDRLPGKKTTKLWVPDEEVSPETMVKIQAIKMMVRWLLGMKNNHSKSGTSTLRLLTTILHSDGDLTEQGKISKPDMSRLRLAAGSAIVKLAQEPCYHEIITLEQYQLCALAINDECYQVRQVFAQKLHKGLSRLRLPLEYMAICALCAKDPVKERRAHARQCLVKNINVRREYLKQHAAVSEKLLSLLPEYVVPYTIHLLAHDPDYVKVQDIEQLKDVKECLWFVLEILMAKNENNSHAFIRKMVENIKQTKDAQGPDDAKMNEKLYTVCDVAMNIIMSKSTTYSLESPKDPVLPARFFTQPDKNFSNTKNYLPPEMKSFFTPGKPKTTNVLGAVNKPLSSAGKQSQTKSSRMETVSNASSSSNPSSPGRIKGRLDSSEMDHSENEDYTMSSPLPGKKSDKRDDSDLVRSELEKPRGRKKTPVTEQEEKLGMDDLTKLVQEQKPKGSQRSRKRGHTASESDEQQWPEEKRLKEDILENEDEQNSPPKKGKRGRPPKPLGGGTPKEEPTMKTSKKGSKKKSGPPAPEEEEEEERQSGNTEQKSKSKQHRVSRRAQQRAESPESSAIESTQSTPQKGRGRPSKTPSPSQPKKNVRVGRSKQAATKENDSSEEVDVFQGSSPVDDIPQEETEEEEVSTVNVRRRSAKRERR
As to B1, the binding result in assay [1] was “binds”.

B2: WAPL (protein, UniProt Q7Z5K2 1-1190)
chain: MTSRFGKTYSRKGGNGSSKFDEVFSNKRTTLSTKWGETTFMAKLGQKRPNFKPDIQEIPKKPKVEEESTGDPFGFDSDDESLPVSSKNLAQVKCSSYSESSEAAQLEEVTSVLEANSKISHVVVEDTVVSDKCFPLEDTLLGKEKSTNRIVEDDASISSCNKLITSDKVENFHEEHEKNSHHIHKNADDSTKKPNAETTVASEIKETNDTWNSQFGKRPESPSEISPIKGSVRTGLFEWDNDFEDIRSEDCILSLDSDPLLEMKDDDFKNRLENLNEAIEEDIVQSVLRPTNCRTYCRANKTKSSQGASNFDKLMDGTSQALAKANSESSKDGLNQAKKGGVSCGTSFRGTVGRTRDYTVLHPSCLSVCNVTIQDTMERSMDEFTASTPADLGEAGRLRKKADIATSKTTTRFRPSNTKSKKDVKLEFFGFEDHETGGDEGGSGSSNYKIKYFGFDDLSESEDDEDDDCQVERKTSKKRTKTAPSPSLQPPPESNDNSQDSQSGTNNAENLDFTEDLPGVPESVKKPINKQGDKSKENTRKIFSGPKRSPTKAVYNARHWNHPDSEELPGPPVVKPQSVTVRLSSKEPNQKDDGVFKAPAPPSKVIKTVTIPTQPYQDIVTALKCRREDKELYTVVQHVKHFNDVVEFGENQEFTDDIEYLLSGLKSTQPLNTRCLSVISLATKCAMPSFRMHLRAHGMVAMVFKTLDDSQHHQNLSLCTAALMYILSRDRLNMDLDRASLDLMIRLLELEQDASSAKLLNEKDMNKIKEKIRRLCETVHNKHLDLENITTGHLAMETLLSLTSKRAGDWFKEELRLLGGLDHIVDKVKECVDHLSRDEDEEKLVASLWGAERCLRVLESVTVHNPENQSYLIAYKDSQLIVSSAKALQHCEELIQQYNRAEDSICLADSKPLPHQNVTNHVGKAVEDCMRAIIGVLLNLTNDNEWGSTKTGEQDGLIGTALNCVLQVPKYLPQEQRFDIRVLGLGLLINLVEYSARNRHCLVNMETSCSFDSSICSGEGDDSLRIGGQVHAVQALVQLFLERERAAQLAESKTDELIKDAPTTQHDKSGEWQETSGEIQWVSTEKTDGTEEKHKKEEEDEELDLNKALQHAGKHMEDCIVASYTALLLGCLCQESPINVTTVREYLPEGDFSIMTEMLKKFLSFMNLTCAVGTTGQKSISRVIEYLEHC
Take B2: the binding result in assay [1] is on record as “binds”.

B3: PDS5A (protein, UniProt Q29RF7 1-1337)
chain: MDFTAQPKPATALCGVVSADGKIAYPPGVKEITDKITTDEMIKRLKMVVKTFMDMDQDSEDEKQQYLPLALHLASEFFLRNPNKDVRLLVACCLADIFRIYAPEAPYTSHDKLKDIFLFITRQLKGLEDTKSPQFNRYFYLLENLAWVKSYNICFELEDCNEIFIQLFRTLFSVINNSHNKKVQMHMLDLMSSIIMEGDGVTQELLDSILINLIPAHKNLNKQSFDLAKVLLKRTVQTIEACIANFFNQVLVLGRSSVSDLSEHVFDLIQELFAIDPHLLLSVMPQLEFKLKSNDGEERLAVVRLLAKLFGSKDSDLATQNRPLWQCFLGRFNDIHVPVRLESVKFASHCLMNHPDLAKDLTEYLKVRSHDPEEAIRHDVIVTIITAAKRDLALVNDQLLGFVRERTLDKRWRVRKEAMMGLAQLYKKYCLHGEAGKEAAEKVSWIKDKLLHIYYQNSIDDKLLVEKIFAQYLVPHNLETEERMKCLYYLYASLDPNAVKALNEMWKCQNMLRSHVRELLDLHKQPTSEANCSAMFGKLMTIAKNLPDPGKAQDFVKKFNQVLGDDEKLRSQLELLISPTCSCKQADICVREIARKLANPKQPTNPFLEMVKFLLERIAPVHIDSEAISALVKLMNKSIEGTADDEEEGVSPDTAIRSGLELLKVLSFTHPTSFHSAETYESLLQCLRMEDDKVAEAAIQIFRNTGHKIETDLPQIRSTLIPILHQKAKRGTPHQAKQAVHCIHAIFTNKEVQLAQIFEPLSRSLNADVPEQLITPLVSLGHISMLAPDQFASPMKSVVANFIVKDLLMNDRSTGEKNGKLWSPDEEVSPEVLAKVQAIKLLVRWLLGMKNNQSKSANSTLRLLSAMLVSEGDLTEQKRISKSDMSRLRLAAGSAIMKLAQEPCYHEIITPEQFQLCALVINDECYQVRQIFAQKLHKALVKLLLPLEYMAIFALCAKDPVKERRAHARQCLLKNISIRREYIKQNPMATEKLLSLLPEYVVPYMIHLLAHDPDFTRSQDVDQLRDIKECLWFMLEVLMTKNENNSHAFMKKMAENIKLTRDAQSPDESKTNEKLYTVCDVALCVINSKSALCNADSPKDPVLPMKFFTQPEKDFCNDKSYISEETRVLLLTGKPKPAGVLGAVNKPLSATGRKPYVRSTGTETGSNINVNSELNPSTGNRSREQSSEAAETGVSENEENPVRIISVTPVKNIDPVKNKEINSDQATQGNISSDRGKKRTVTAAGAENIQQKTDEKVDESGPPAPSKPRRGRRPKSESQGNATKNDDLNKPINKGRKRAAVGQESPGGLEAGNAKAPKLQDLAKKAAPAERQIDLQR
For B3, the binding entry in assay [2] and in assay [1] was “binds” in each case.

B4: RAD21 (protein, UniProt O60216 1-631)
chain: MFYAHFVLSKRGPLAKIWLAAHWDKKLTKAHVFECNLESSVESIISPKVKMALRTSGHLLLGVVRIYHRKAKYLLADCNEAFIKIKMAFRPGVVDLPEENREAAYNAITLPEEFHDFDQPLPDLDDIDVAQQFSLNQSRVEEITMREEVGNISILQENDFGDFGMDDREIMREGSAFEDDDMLVSTTTSNLLLESEQSTSNLNEKINHLEYEDQYKDDNFGEGNDGGILDDKLISNNDGGIFDDPPALSEAGVMLPEQPAHDDMDEDDNVSMGGPDSPDSVDPVEPMPTMTDQTTLVPNEEEAFALEPIDITVKETKAKRKRKLIVDSVKELDSKTIRAQLSDYSDIVTTLDLAPPTKKLMMWKETGGVEKLFSLPAQPLWNNRLLKLFTRCLTPLVPEDLRKRRKGGEADNLDEFLKEFENPEVPREDQQQQHQQRDVIDEPIIEEPSRLQESVMEASRTNIDESAMPPPPPQGVKRKAGQIDPEPVMPPQQVEQMEIPPVELPPEEPPNICQLIPELELLPEKEKEKEKEKEDDEEEEDEDASGGDQDQEERRWNKRTQQMLHGLQRALAKTGAESISLLELCRNTNRKQAAAKFYSFLVLKKQQAIELTQEEPYSDIIATPGPRFHII
For the molecule B4, the binding result (with FLAG-SMC1A-WT (human); in assay [1]) was “binds” each time.
